Measured data: PubChem BioAssay AID602196 (INSERM, 2012)

Test: 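Knock-downs that protect lung cancer cells from cisplatin or sensitise them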
Cell system: human A549 lung cancer cells
Knock-down reagent: siRNA pair against human genes
Timing: 48 h transfection before cisplatin; time from cisplatin to read-out not stated
Treatment: cisplatin at a dose killing half of control-siRNA cells; exact dose and duration not given
Read-out: 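Cisplatin cell death as a shift from the 50% death seen with control siRNA; siRNAs toxic or growth-blocking alone scored 0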
Direction: two-siRNA summed score (-2 to +2): higher = both siRNAs protect from cisplatin killing; -2 means both sensitise
Rule for the call: 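Each siRNA scores 0 if harmful alone by LDH or WST-1, otherwise +1 if it reduces and -1 if it increases cisplatin killing; a gene is active when both siRNAs agree (sum +2 or -2)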
Meaning of the calls: active = both siRNAs shift cisplatin killing the same way; inactive = no consistent shift, or siRNA harmful alone
This is an unselected part of about 23,000 reagents. 455 of them (2%) count as active. 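Active includes both protection and sensitisation; some change values fall well beyond the stated -50 to +50 range.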 A number with no mark means an inactive call. Reagents against one gene are numbered here. Not all columns of the deposit are shown. Not stated in the record: the amount of reagent.

{"target": "LOC440468", "reagent": 1, "two-siRNA summed score (-2 to +2)": 0}
{"target": "PRKCG", "reagent": 1, "two-siRNA summed score (-2 to +2)": 0}
{"target": "PTPN20", "reagent": 1, "two-siRNA summed score (-2 to +2)": 0}
{"target": "IDH3A", "reagent": 1, "two-siRNA summed score (-2 to +2)": 0}
{"target": "LOC441126", "reagent": 1, "two-siRNA summed score (-2 to +2)": 0}
{"target": "LOC401216", "reagent": 1, "two-siRNA summed score (-2 to +2)": 0}
{"target": "PSMF1", "reagent": 1, "two-siRNA summed score (-2 to +2)": 1}
{"target": "ANP32D", "reagent": 1, "two-siRNA summed score (-2 to +2)": 0}
{"target": "ANP32D", "reagent": 2, "two-siRNA summed score (-2 to +2)": 0}
{"target": "OR1J1", "reagent": 1, "two-siRNA summed score (-2 to +2)": -1}
{"target": "SLC35D1", "reagent": 1, "two-siRNA summed score (-2 to +2)": 0}
{"target": "LOC145788", "reagent": 1, "two-siRNA summed score (-2 to +2)": 0}
{"target": "CRCP", "reagent": 1, "two-siRNA summed score (-2 to +2)": 0}
{"target": "LOC440516", "reagent": 1, "two-siRNA summed score (-2 to +2)": 0}
{"target": "LOC90133", "reagent": 1, "two-siRNA summed score (-2 to +2)": 1}
{"target": "UBE2U", "reagent": 1, "two-siRNA summed score (-2 to +2)": 0}
{"target": "ZNF554", "reagent": 1, "two-siRNA summed score (-2 to +2)": 0}
{"target": "PPP1R26", "reagent": 1, "two-siRNA summed score (-2 to +2)": 0}
{"target": "RUVBL1", "reagent": 1, "two-siRNA summed score (-2 to +2)": "-2 (active)"}
{"target": "LOC400965 (retired record)", "reagent": 1, "two-siRNA summed score (-2 to +2)": 0}

Reprinted from above, 2 entries:
{"target": "ANP32D", "reagent": 2, "two-siRNA summed score (-2 to +2)": 0}
{"target": "OR1J1", "reagent": 1, "two-siRNA summed score (-2 to +2)": -1}

Additional entries follow:
{"target": "AMDHD1", "reagent": 1, "two-siRNA summed score (-2 to +2)": 0}
{"target": "CAPZA2", "reagent": 1, "two-siRNA summed score (-2 to +2)": 0}
{"target": "ACVR2B", "reagent": 1, "two-siRNA summed score (-2 to +2)": 0}
{"target": "ZZEF1", "reagent": 1, "two-siRNA summed score (-2 to +2)": 0}
{"target": "LOC440711", "reagent": 1, "two-siRNA summed score (-2 to +2)": 0}
{"target": "NEIL3", "reagent": 1, "two-siRNA summed score (-2 to +2)": 0}
{"target": "ADD1", "reagent": 1, "two-siRNA summed score (-2 to +2)": -1}
{"target": "ZNF124", "reagent": 1, "two-siRNA summed score (-2 to +2)": 0}
{"target": "MRGPRX2", "reagent": 1, "two-siRNA summed score (-2 to +2)": 0}
{"target": "LOC441306", "reagent": 1, "two-siRNA summed score (-2 to +2)": 0}
{"target": "STYXL1", "reagent": 1, "two-siRNA summed score (-2 to +2)": 0}
